Values from PubChem BioAssay AID1259308 (NCATS, 2017)
Aim: 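Candidate targets for better recombinant protein yield in mammalian cells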 (primary screen). Cells: human HEK293 embryonic kidney cells stably expressing firefly luciferase (HEK-CMV-Luc2-Hygro). Reagents: single siRNA against human genes, 0.8 pmol siRNA per well. Timing: 72 h. Read-out: 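Luciferase light (ONE-Glo) measured on one replicate plate set and viability (CellTiter-Glo) on the other, scaled to a negative control siRNA, with robust z-scores and luciferase per cell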. Scale: total luciferase, z-score and total luciferase, % of control: higher = more reporter protein produced. Hit rule: 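An siRNA counts as active if its total luciferase robust z-score exceeds 3; genes with two or more such siRNAs out of three were retested with fresh siRNAs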. Calls: active = raised luciferase; inactive = no rise.
This is a random part of about 59,000 reagents tested. About 1,510 of them (2.6%) were called active. 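Calls use total luciferase alone and ignore viability, so some active siRNAs may act by altering cell number.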 Unmarked entries are inactive. Not all columns of the deposit are shown.

no.	gene	PubChem SID	total luciferase, z-score	total luciferase, % of control
1	GHRHR (growth hormone releasing hormone receptor)	SID160770814	2.24	126
2	GHRHR (growth hormone releasing hormone receptor)	SID160770824	0.15	84.9
3	GHRHR (growth hormone releasing hormone receptor)	SID160770833	0.858	98.9
4	CDKAL1 (CDKAL1 threonylcarbamoyladenosine tRNA methylthiotransferase)	SID160742454	-0.483	72.3
5	CDKAL1 (CDKAL1 threonylcarbamoyladenosine tRNA methylthiotransferase)	SID160742455	0.11	84.1
6	CDKAL1 (CDKAL1 threonylcarbamoyladenosine tRNA methylthiotransferase)	SID160742456	1.72	116
7	UBASH3A (ubiquitin associated and SH3 domain containing A)	SID160741404	0.405	89.9
8	UBASH3A (ubiquitin associated and SH3 domain containing A)	SID160741406	-1.01	61.9
9	UBASH3A (ubiquitin associated and SH3 domain containing A)	SID160741407	-0.732	67.3
10	RNGTT (RNA guanylyltransferase and 5'-phosphatase)	SID160720697	-1.6	50.1
11	RNGTT (RNA guanylyltransferase and 5'-phosphatase)	SID160720698	-1.34	55.1
12	RNGTT (RNA guanylyltransferase and 5'-phosphatase)	SID160720699	-0.127	79.4
13	SMS (spermine synthase)	SID160717070	-0.324	75.4
14	SMS (spermine synthase)	SID160717071	-1.64	49.2
15	SMS (spermine synthase)	SID160717072	0.548	92.8
16	CYP8B1 (cytochrome P450 family 8 subfamily B member 1)	SID160751839	0.614	94.1
17	CYP8B1 (cytochrome P450 family 8 subfamily B member 1)	SID160751850	0.607	94
18	CYP8B1 (cytochrome P450 family 8 subfamily B member 1)	SID160751861	0.287	87.6
19	ATXN1L (ataxin 1 like)	SID160764605	0.0357	82.6
20	ATXN1L (ataxin 1 like)	SID160764606	2.25	127
21	ATXN1L (ataxin 1 like)	SID160764607	0.0802	83.5
22	LOC728667 (dehydrogenase/reductase 4 like 2 pseudogene)	SID160726784	-0.285	76.2
23	LOC728667 (dehydrogenase/reductase 4 like 2 pseudogene)	SID160772014	0.349	88.8
24	LOC728667 (dehydrogenase/reductase 4 like 2 pseudogene)	SID160772015	0.455	90.9
25	OR2AE1 (olfactory receptor family 2 subfamily AE member 1)	SID160750722	1.4	110
26	OR2AE1 (olfactory receptor family 2 subfamily AE member 1)	SID160750723	0.088	83.6
27	OR2AE1 (olfactory receptor family 2 subfamily AE member 1)	SID160750724	0.638	94.6
28	CCIN (calicin)	SID160737460	-0.514	71.7
29	CCIN (calicin)	SID160737470	-0.906	63.9
30	CCIN (calicin)	SID160737479	3.68 (active)	155
31	IL15 (interleukin 15)	SID160775788	0.817	98.1
32	IL15 (interleukin 15)	SID160775789	0.213	86.1
33	IL15 (interleukin 15)	SID160775790	1.01	102
34	FAR1 (fatty acyl-CoA reductase 1)	SID160751858	-0.688	68.2
35	FAR1 (fatty acyl-CoA reductase 1)	SID160751859	0.899	99.8
36	FAR1 (fatty acyl-CoA reductase 1)	SID160751860	-1.55	51.1
37	RAN (RAN, member RAS oncogene family)	SID160715633	-1.27	56.6
38	RAN (RAN, member RAS oncogene family)	SID160715634	-1.15	59
39	RAN (RAN, member RAS oncogene family)	SID160715635	-0.91	63.8

A run of entries taken from the entries so far:
no.	gene	PubChem SID	total luciferase, z-score	total luciferase, % of control
26	OR2AE1 (olfactory receptor family 2 subfamily AE member 1)	SID160750723	0.088	83.6
27	OR2AE1 (olfactory receptor family 2 subfamily AE member 1)	SID160750724	0.638	94.6
28	CCIN (calicin)	SID160737460	-0.514	71.7
29	CCIN (calicin)	SID160737470	-0.906	63.9
30	CCIN (calicin)	SID160737479	3.68 (active)	155
31	IL15 (interleukin 15)	SID160775788	0.817	98.1
32	IL15 (interleukin 15)	SID160775789	0.213	86.1

Next entries:
no.	gene	PubChem SID	total luciferase, z-score	total luciferase, % of control
40	SP110 (SP110 nuclear body protein)	SID160775559	-0.218	77.6
41	SP110 (SP110 nuclear body protein)	SID160775560	0.381	89.5
42	SP110 (SP110 nuclear body protein)	SID160775561	-0.00513	81.8
43	UTP3 (UTP3 small subunit processome component)	SID160745534	-1.91	43.9
44	UTP3 (UTP3 small subunit processome component)	SID160745535	1.61	114
45	UTP3 (UTP3 small subunit processome component)	SID160745537	-1.16	58.8
46	TUBB3 (tubulin beta 3 class III)	SID160724255	2.96	141
47	TUBB3 (tubulin beta 3 class III)	SID160728287	0.0306	82.5
48	TUBB3 (tubulin beta 3 class III)	SID160728288	0.315	88.2
49	CMTM2 (CKLF like MARVEL transmembrane domain containing 2)	SID160758340	0.528	92.4
50	CMTM2 (CKLF like MARVEL transmembrane domain containing 2)	SID160758341	-0.374	74.5
51	CMTM2 (CKLF like MARVEL transmembrane domain containing 2)	SID160758342	0.593	93.7
52	GAS6-AS1 (GAS6 antisense RNA 1)	SID160770534	-0.271	76.5
53	GAS6-AS1 (GAS6 antisense RNA 1)	SID160770535	0.33	88.4
54	GAS6-AS1 (GAS6 antisense RNA 1)	SID160770536	2.32	128
55	OR11A1 (olfactory receptor family 11 subfamily A member 1)	SID160738064	-1.16	58.9
56	OR11A1 (olfactory receptor family 11 subfamily A member 1)	SID160738065	-0.92	63.6
57	OR11A1 (olfactory receptor family 11 subfamily A member 1)	SID160738067	0.911	100
58	SSX2IP (SSX family member 2 interacting protein)	SID160755547	-0.519	71.6
59	SSX2IP (SSX family member 2 interacting protein)	SID160755548	-0.223	77.4
60	SSX2IP (SSX family member 2 interacting protein)	SID160755549	-0.82	65.6
61	LRRC41 (leucine rich repeat containing 41)	SID160728559	-0.667	68.6
62	LRRC41 (leucine rich repeat containing 41)	SID160728560	0.386	89.6
63	LRRC41 (leucine rich repeat containing 41)	SID160728561	0.569	93.2
64	WHRN (whirlin)	SID160730906	-0.42	73.5
65	WHRN (whirlin)	SID160737135	0.786	97.5
66	WHRN (whirlin)	SID160737136	0.435	90.5
67	FOXN3 (forkhead box N3)	SID160730508	-0.696	68
68	FOXN3 (forkhead box N3)	SID160742639	0.794	97.7
69	FOXN3 (forkhead box N3)	SID160742660	0.293	87.7
70	CAMLG (calcium modulating ligand)	SID160736157	0.124	84.4
71	CAMLG (calcium modulating ligand)	SID160736167	-1.11	59.8
72	CAMLG (calcium modulating ligand)	SID160736177	4.17 (active)	165
73	YWHAEP5	SID160767889	1.51	112
74	YWHAEP5	SID160767890	0.11	84.1
75	YWHAEP5	SID160767891	-1.95	43.1
